This note sets out measurements from the supplement of paper PMC12819154, “High-throughput peptide-centric local stability assay extends protein–ligand identification to membrane proteins, tissues and bacteria” (Nature Structural & Molecular Biology, 2025).

Amino acid sequences for entries named in this document (tags omitted). A change or cut given only in a name is not applied to a line headed by its entry.
UniProt Q6PDX6: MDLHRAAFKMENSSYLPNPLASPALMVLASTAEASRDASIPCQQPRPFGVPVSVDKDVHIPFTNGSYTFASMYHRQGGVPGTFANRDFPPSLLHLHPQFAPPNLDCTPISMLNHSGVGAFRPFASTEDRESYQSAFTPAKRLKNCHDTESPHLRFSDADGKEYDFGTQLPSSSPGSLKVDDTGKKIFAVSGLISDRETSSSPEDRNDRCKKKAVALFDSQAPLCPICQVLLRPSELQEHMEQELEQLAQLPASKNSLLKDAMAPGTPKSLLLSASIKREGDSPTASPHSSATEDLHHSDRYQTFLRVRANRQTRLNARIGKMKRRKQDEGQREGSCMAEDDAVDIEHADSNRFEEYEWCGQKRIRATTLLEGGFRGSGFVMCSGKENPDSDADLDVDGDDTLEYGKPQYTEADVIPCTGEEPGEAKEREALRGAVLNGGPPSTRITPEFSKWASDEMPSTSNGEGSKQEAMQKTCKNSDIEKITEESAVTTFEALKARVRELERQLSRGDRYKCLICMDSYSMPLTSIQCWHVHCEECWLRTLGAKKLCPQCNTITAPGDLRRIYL
UniProt Q6KCD5: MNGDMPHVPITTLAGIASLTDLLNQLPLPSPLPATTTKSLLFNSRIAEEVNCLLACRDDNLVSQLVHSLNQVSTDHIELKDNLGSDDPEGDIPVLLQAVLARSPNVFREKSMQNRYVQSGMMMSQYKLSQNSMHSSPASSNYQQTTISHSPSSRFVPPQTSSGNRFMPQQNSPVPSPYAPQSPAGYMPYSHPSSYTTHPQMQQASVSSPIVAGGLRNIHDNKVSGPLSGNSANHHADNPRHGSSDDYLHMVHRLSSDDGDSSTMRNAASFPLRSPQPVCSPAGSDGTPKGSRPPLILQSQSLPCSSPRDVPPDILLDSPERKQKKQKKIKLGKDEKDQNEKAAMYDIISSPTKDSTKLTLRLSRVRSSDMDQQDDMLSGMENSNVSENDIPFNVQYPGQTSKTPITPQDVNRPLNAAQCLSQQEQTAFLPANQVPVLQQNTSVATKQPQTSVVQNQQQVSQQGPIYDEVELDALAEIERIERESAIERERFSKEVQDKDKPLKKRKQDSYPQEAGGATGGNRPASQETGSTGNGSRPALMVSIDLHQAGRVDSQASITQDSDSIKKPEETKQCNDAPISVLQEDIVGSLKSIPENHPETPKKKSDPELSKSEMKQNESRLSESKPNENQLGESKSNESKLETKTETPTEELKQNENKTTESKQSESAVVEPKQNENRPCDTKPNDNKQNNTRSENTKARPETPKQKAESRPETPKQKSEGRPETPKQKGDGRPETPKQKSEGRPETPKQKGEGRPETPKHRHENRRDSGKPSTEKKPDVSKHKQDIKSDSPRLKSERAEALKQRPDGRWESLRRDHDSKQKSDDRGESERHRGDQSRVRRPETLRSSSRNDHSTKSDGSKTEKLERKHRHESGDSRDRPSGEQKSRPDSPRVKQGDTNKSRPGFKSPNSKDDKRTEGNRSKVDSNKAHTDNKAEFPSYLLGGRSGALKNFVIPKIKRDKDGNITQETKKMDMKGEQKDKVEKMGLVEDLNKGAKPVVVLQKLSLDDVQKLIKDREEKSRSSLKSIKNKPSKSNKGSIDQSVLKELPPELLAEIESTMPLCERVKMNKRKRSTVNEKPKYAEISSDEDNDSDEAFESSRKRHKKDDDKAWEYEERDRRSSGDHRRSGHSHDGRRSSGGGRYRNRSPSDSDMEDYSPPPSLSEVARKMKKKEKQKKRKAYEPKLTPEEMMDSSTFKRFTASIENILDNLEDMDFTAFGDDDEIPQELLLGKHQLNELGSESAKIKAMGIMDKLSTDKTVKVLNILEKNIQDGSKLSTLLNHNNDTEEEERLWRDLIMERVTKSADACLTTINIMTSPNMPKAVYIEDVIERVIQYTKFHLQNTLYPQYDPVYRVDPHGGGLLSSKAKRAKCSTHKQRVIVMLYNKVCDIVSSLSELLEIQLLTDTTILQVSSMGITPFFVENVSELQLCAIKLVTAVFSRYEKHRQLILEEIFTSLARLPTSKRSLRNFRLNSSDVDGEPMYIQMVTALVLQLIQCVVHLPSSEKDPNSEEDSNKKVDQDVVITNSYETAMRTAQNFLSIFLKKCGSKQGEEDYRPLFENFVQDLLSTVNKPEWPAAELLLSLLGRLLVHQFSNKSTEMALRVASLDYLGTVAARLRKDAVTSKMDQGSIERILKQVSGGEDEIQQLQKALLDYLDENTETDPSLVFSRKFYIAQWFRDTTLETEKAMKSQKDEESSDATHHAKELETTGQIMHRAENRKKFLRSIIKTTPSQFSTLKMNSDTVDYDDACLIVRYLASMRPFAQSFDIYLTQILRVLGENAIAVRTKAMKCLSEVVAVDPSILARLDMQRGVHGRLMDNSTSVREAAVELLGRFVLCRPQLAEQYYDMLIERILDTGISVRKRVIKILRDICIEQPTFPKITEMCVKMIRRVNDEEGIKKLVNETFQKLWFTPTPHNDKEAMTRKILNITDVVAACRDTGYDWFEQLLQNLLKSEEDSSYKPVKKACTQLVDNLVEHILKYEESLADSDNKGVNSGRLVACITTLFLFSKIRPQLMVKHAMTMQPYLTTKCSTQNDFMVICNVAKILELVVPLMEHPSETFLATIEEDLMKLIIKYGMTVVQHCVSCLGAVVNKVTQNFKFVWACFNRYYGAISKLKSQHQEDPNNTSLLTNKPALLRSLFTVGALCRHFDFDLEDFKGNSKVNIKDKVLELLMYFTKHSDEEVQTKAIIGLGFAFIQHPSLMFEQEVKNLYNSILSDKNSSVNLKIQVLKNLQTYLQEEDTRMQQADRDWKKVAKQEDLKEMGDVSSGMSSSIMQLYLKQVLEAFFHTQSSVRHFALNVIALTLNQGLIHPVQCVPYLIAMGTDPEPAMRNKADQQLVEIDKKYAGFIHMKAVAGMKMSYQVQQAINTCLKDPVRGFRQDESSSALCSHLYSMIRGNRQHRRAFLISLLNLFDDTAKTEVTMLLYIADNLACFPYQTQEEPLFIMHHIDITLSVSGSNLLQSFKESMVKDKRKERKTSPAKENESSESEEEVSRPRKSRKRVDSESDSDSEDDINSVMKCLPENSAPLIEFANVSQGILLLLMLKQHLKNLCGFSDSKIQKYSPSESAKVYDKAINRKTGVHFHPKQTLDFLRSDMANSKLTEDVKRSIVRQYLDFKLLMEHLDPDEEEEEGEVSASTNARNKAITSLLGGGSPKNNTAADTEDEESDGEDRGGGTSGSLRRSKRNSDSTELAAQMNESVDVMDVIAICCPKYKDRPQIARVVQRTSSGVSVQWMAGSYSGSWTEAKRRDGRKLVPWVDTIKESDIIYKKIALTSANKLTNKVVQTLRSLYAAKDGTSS
UniProt Q6TEK5: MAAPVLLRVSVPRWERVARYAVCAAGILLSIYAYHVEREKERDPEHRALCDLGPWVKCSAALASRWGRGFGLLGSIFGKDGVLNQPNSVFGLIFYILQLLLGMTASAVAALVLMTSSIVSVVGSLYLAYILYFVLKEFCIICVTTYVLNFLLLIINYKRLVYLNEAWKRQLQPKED
UniProt Q6P9J9: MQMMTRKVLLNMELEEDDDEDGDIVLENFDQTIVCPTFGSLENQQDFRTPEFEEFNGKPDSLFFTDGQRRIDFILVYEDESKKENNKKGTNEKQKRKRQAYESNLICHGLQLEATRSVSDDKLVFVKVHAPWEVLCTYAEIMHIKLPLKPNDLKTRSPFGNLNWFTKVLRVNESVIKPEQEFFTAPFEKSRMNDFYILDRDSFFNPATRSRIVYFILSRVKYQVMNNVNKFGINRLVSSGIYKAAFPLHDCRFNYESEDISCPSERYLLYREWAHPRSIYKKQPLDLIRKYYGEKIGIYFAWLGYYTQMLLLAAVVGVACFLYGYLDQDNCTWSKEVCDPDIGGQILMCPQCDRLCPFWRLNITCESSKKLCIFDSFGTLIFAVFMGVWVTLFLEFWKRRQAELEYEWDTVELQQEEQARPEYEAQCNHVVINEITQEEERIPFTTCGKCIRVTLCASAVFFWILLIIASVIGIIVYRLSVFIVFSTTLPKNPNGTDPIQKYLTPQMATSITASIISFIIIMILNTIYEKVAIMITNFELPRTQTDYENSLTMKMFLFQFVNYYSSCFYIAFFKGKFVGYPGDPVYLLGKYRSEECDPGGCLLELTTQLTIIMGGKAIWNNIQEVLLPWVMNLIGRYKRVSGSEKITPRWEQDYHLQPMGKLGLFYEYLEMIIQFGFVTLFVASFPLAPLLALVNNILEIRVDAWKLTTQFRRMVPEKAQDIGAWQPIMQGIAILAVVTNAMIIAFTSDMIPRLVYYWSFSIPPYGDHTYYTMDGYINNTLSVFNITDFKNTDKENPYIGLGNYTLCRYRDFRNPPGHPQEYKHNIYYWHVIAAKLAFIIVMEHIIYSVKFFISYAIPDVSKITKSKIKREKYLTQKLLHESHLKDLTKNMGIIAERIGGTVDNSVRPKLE
UniProt Q6PA06: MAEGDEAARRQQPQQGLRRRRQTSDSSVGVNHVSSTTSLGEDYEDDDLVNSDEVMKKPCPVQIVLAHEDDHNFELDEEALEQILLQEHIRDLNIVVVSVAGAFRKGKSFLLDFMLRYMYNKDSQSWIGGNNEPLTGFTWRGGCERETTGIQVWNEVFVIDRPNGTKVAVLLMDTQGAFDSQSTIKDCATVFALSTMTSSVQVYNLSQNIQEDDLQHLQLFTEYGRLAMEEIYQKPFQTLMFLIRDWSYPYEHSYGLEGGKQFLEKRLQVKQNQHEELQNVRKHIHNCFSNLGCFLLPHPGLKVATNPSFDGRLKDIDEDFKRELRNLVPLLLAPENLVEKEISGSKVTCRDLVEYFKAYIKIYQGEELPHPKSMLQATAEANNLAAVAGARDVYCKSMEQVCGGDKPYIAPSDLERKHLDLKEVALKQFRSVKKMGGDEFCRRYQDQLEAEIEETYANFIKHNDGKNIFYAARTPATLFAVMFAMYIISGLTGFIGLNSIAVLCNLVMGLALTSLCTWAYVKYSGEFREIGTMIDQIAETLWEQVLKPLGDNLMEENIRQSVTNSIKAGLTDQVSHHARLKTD
UniProt Q6PAL8: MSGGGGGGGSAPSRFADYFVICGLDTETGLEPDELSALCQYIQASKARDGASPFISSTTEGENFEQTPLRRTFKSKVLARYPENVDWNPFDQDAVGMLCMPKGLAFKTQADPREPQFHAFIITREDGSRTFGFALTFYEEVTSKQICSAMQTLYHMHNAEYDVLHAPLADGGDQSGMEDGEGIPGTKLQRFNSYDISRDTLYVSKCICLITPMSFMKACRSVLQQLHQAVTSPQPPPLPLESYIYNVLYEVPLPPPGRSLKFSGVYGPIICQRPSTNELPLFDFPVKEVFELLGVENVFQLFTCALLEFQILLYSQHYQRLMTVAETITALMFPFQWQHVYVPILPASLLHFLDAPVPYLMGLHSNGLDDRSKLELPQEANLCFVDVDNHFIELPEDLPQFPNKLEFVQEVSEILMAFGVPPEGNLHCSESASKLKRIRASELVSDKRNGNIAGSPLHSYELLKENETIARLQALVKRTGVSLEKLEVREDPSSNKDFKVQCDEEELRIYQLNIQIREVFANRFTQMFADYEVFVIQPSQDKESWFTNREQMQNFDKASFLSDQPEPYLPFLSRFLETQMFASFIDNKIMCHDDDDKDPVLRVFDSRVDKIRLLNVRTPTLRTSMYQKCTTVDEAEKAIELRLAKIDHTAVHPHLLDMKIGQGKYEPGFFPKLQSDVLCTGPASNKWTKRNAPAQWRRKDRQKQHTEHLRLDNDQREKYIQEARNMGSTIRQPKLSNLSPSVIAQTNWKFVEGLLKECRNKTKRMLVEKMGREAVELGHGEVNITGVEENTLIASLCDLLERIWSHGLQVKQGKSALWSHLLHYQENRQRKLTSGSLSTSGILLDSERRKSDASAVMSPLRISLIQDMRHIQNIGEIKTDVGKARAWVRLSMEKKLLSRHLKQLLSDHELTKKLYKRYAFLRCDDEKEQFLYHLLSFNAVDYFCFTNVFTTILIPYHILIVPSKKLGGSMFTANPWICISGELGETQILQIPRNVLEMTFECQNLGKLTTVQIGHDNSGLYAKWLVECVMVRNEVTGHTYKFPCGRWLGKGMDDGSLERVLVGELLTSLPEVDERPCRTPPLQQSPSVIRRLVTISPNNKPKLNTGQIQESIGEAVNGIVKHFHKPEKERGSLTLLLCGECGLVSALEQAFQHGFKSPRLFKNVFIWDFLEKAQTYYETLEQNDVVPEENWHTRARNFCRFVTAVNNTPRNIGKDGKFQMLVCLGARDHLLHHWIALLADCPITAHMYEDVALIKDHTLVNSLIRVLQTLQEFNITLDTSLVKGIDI

This is one part of the list. Small differences around the control level are noise.

Compound in the assay: CN[C@@H]1C[C@H]2O[C@@](C)([C@@H]1OC)n1c3ccccc3c3c4c(c5c6ccccc6n2c5c31)C(=O)NC4 [staurosporine]
Nature of the assay: log2 fold change of tryptic peptide abundance, ligand vs vehicle (limited proteolysis) (log2 ratio); higher = more trypsin-susceptible (destabilized). As to conditions: ligand concentration: 20 uM; sample: mouse liver crude lysate; replicate design: treated separately.
Consider “UniProt Q6PGG2 (peptide sequence: SELQYIQR, peptide start residue: 220)”, for which the log2 fold change is -0.288. Next, “UniProt Q69ZR9 (peptide sequence: SIYDPLSVK, peptide start residue: 245)”: -0.564; “UniProt Q6PDX6 (peptide sequence: KQDEGQR, peptide start residue: 326)”: -0.0744. Then “UniProt Q6KCD5 (peptide sequence: LMDNSTSVR, peptide start residue: 1814)”, with 0.563.

On to “UniProt Q6VGS5 (peptide sequence: RLWQQVELK, peptide start residue: 840)”, for which the log2 fold change worked out at 0.0965.

For “UniProt Q6NXH8 (peptide sequence: IFCETSQK, peptide start residue: 86)”, the log2 fold change is -0.245.

Regarding “UniProt Q6TEK5 (peptide sequence: ALCDLGPWVK, peptide start residue: 48)”, the log2 fold change is -0.0919. Then “UniProt Q6A098 (peptide sequence: ETSATGPDSR, peptide start residue: 199)”, with -0.344; and “UniProt Q6DFV5 (peptide sequence: SLSGESLNGMVTK, peptide start residue: 118)”, with 0.644. Then “UniProt Q6P9J9 (peptide sequence: LLHESHLK, peptide start residue: 878)”, with -0.167. As for “UniProt Q6PA06 (peptide sequence: IYQGEELPHPK, peptide start residue: 362)”, the log2 fold change was determined as 0.286.

In the case of “UniProt Q6PAL8 (peptide sequence: RLVTISPNNKPK, peptide start residue: 1091)”, the log2 fold change was found to be 0.684.
